Experimental data as given in PubChem BioAssay (NCATS).
Some of the results follow. Further columns of the screen follow, without active or inactive calls. The list favours compounds with an active or inconclusive main result. Potencies come from curve fits of mixed quality, noted in brackets.

Assay: qHTS for identification of novel therapeutic agents for treatment of microphthalmiaassociated transcription factor (MiT) renal cell carcinoma (RCC) (AID 1963991)
Conditions: CellTiter-Glo, 48 h; for z-score: stronger effect = lower value
Method in brief: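 UOK109/UOK124/UOK145 (TFE3 fusions, three partners); 500 cells/well; MIPE v4.0, 1912 cpds, 11 conc.; 48 h, 37 C; CellTiter-Glo, 15 min RT; lum. Norm.: DMSO 100%, empty 0%.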

[1] = TFE3-RCC UOK109 viability, measured here: UOK109 Z-AUC
[2] = TFE3-RCC viability, measured here: UOK124 Z-AUC
[3] = TFE3-RCC viability, measured here: UOK145 Z-AUC
[4] = TFE3-RCC viability, measured here: UOK145 cell viability
[5] = TFE3-RCC viability, measured here: UOK124 cell viability

Row | Compound | z-score [1] | z-score [2] | z-score [3] | AC50 [4] | AC50 [5]
1 | COc1cc2c(cc1OC)CN(CCc1ccc(NC(=O)c3cc(OC)c(OC)cc3NC(=O)c3cnc4ccccc4c3)cc1)CC2 | 0.356 | 0.783 | 0.221 | 23.5 µM [falling, partial curve, poor fit] | 
2 | Clc1ccc2c(N3CCN(CCCN4CCN(c5ccnc6cc(Cl)ccc56)CC4)CC3)ccnc2c1 | 0.653 | 0.881 | 0.759 |  | 0.000645 µM [rising, full curve]
3 | N[C@@]1(C(=O)O)CS(=O)(=O)[C@H]2[C@H](C(=O)O)[C@H]21 | 0.364 | 0.367 | 0.257 | 37.2 µM [falling, partial curve, poor fit] | 
4 | OC[C@H]1O[C@@H](O[C@H]2[C@@H](O)[C@@](O)(CO)O[C@@H]2CO)[C@H](O)[C@@H](O)[C@@H]1O | 0.576 | 0.477 | 0.744 | 26.4 µM [falling, partial curve, poor fit] | 
5 | Fc1ccc(C(c2ccc(F)cc2)N2CCN(CC=Cc3ccccc3)CC2)cc1 | 0.763 | 0.528 | 0.248 |  | 33.2 µM [falling, partial curve, poor fit]
6 | Nc1nccc(-c2ccc3noc(-c4ccc(Cl)cc4)c3c2)n1 | 0.512 | 0.588 | 0.599 | 26.4 µM [falling, single point] | 
7 | Clc1ccc(CCC(Cn2ccnc2)Sc2c(Cl)cccc2Cl)cc1 (configuration not stated) | 0.118 | 0.0548 | 0.0333 |  | 33.2 µM [falling, single point]
8 | CN1CC(=O)NC1=NC(=O)Nc1cccc(Cl)c1 | 0.524 | 0.6 | 0.421 |  | 20.9 µM [falling, partial curve]
